Experimental findings from article PMC12428314 are described below.

Sequences of proteins named here, by UniProt entry; tags and fusion partners are left off.
UniProt Q9Z2I2: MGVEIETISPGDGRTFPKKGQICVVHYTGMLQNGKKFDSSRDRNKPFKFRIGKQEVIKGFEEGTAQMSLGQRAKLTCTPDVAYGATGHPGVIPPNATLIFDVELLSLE

The experiment deals with FK506-binding protein 12.6 (FKBP12.6) (mouse (endogenous in left ventricular myocardium)) (UniProt Q9Z2I2). The experiment is described as follows: co-IP; 1.5 mg lysate of mouse left ventricular myocardial tissue (IP lysis buffer with protease inhibitor) incubated with anti-FKBP12.6 antibody and protein A/G magnetic beads overnight at 4 °C; immunoblotting. In general terms: Immunoblotting shows a protein as a band on a membrane.

These are yes or no findings as the source states them, for the method shown. Binding seen in cells or lysates may run through a third protein. Some binding calls cover weakened binding; strength is not graded here.

B1: Glomulin (GLMN) (protein, UniProt Q8BZM1 1-596)
chain: MAVEELQSIIKRCQILEEHDFKEEDFGLFQLAGQRCIEDGYINQLLEIIQDEKNKTIIKSMGWNLVGPVVRCLLRGREEDKREECFLIFDLLVKLCNPKELLLGLLELIEEPSGKQISQIILLLLQPLQTVIQKLPNNKAYSVGLALSTLWSQLSLLPVPHSEEQIQADDYGLCQCCKALIEFTKPFVEEVISDKENKENAKLKDELLKFCFKGLKCPLLTAQFLEQSEDVGNDPFRCFASEIIGFLSKIGHPVPQIILNHGRKKRTWDYLEFEEEEDKQLAESVASLTYLVFVQGIGIDQLPMVLSPSYLLQLNMEHIEVFLQRTEQSIYSKGLELLETSLLRLEDNSLCYQYLEIKSFLAVPQGLVKVMTLCPIETLRKKGLSMLQLFIDKLDSQGKYTLFRCLLNTSNHSGVEAFVIQNIKNQIDLSFKKTYNKWFAGAQLISLLDLVLSLPEGAETDLLQNSDRIMASLNLLRYLVIKDNEDDNQTGLWTELGKIENNFLKPLHIGLNMSKAHYEAEIKNSQQNNQVASMCKGVCSVTVGGEEIPSMPPEMQLKVLHSALFTFDLIESVLARVEELIEIKSKSTSEENVGIK
Consider B1, for which the binding result is “binds”.
